In PubChem BioAssay AID540276 (National Center for Advancing Translational Sciences (NCATS), 2011):
Out of some 300,000 compounds screened, about 5,400 (1.8%) were called active. Inconclusive results, whose numbers are uncertain, are shown with a selection of clear calls. Calls come from the whole dose curve; tested in HEK293 cells. Potencies of inconclusive entries are doubtful fits and often do not repeat.

Assay: qHTS for inhibitors of binding or entry into cells for Marburg Virus
Conditions: Marburg virus pseudotyped entry inhibition, cell reporter; series mostly up to 37.8 µM
Potency is the fitted concentration of half-maximal effect.

| SMILES | Potency |
| --- | --- |
| COC(=O)c1[nH]c2ccccc2c1NC(=O)CN1CCCCCC1 | inactive |
| C=CCNC(=O)NC(=S)c1ccccc1 | inactive |
| COc1ccc(N2C(=O)NC(NS(=O)(=O)c3ccc(Cl)cc3)(C(F)(F)F)C2=O)cc1 (configuration not stated) | inconclusive: 3.16 µM [inhibitor, single point] |
| CN1CCC(N(C)C(=O)c2ccc(Cl)c(S(=O)(=O)N3CCOCC3)c2)CC1 | inconclusive: 1.26 µM [inhibitor, single point] |
| O=C(CCc1ccccc1)NNC(=O)COc1ccccc1Cl | inactive |
| CN(C)CC#CCOCCOCCC#N | inconclusive: 5.62 µM [activator, single point] |
| Cc1cccc(N/C(N)=N/c2nc(C)cc(C)n2)c1 | inconclusive: 35.5 µM [inhibitor, single point] |
| Cc1ccccc1CNC(=O)C(=O)NCCC1CCCCN1S(=O)(=O)c1ccccc1 (configuration not stated) | inconclusive: 5.62 µM [activator, single point] |
| COCCNC(=O)c1ccccc1-c1nc(-c2ccccc2OC)no1 | inactive |
| O=[N+]([O-])c1ccc(N2CCNCC2)cc1Sc1ccccn1 | inconclusive: 6.31 µM [inhibitor, single point] |
| CCCc1ccc(S(=O)(=O)N(C)S(=O)(=O)c2ccc(F)cc2)cc1 | inconclusive: 5.62 µM [activator, single point] |
| COCCCNC(=O)COc1ccc(-c2nccc(-c3ccccn3)n2)cc1 | inconclusive: 35.5 µM [inhibitor, single point] |
| Clc1cccc(Cl)c1/C=N\Nc1nccs1 | inactive |
| O=C(O)c1cc2c(s1)-c1ccccc1CC2 | inconclusive: 12.6 µM [activator, single point] |
| COc1ccc(OC)c(C2SCCN2S(=O)(=O)c2cccc(C(F)(F)F)c2)c1 (configuration not stated) | inactive |
| Cc1cc2nc(-c3ccc(OCc4ccccc4C)cc3)cc(C(F)(F)F)n2n1 | inactive |
| COc1cc(C2CC(=O)N(Cc3cccc(F)c3)c3ccccc3S2)cc(OC)c1OC (configuration not stated) | inactive |
| CSCCC(NC(=O)C12CC3CC(CC(C3)C1)C2)C(=O)OCC(=O)c1ccc(C)cc1 (configuration not stated) | inactive |
| CCSc1nc2c(c(=O)[nH]c(=O)n2C)n1Cc1ccc(Cl)cc1 | inconclusive: 35.5 µM [activator, single point] |
| COc1ccc(/C=N/NC(=O)CSc2nnc(C)n2-c2ccccc2)c(OC)c1OC | inconclusive: 20 µM [inhibitor, single point] |
| CCN(CC)CC#CCOC(=O)[C@@](O)(c1ccccc1)C1CCCCC1 | inconclusive: 29.1 µM [inhibitor, single point] |
| COc1ccc(/C=C/C(=O)CC(O)(c2ccccc2)C(F)(F)F)cc1 (configuration not stated) | inconclusive: 10 µM [inhibitor, partial curve, poor fit] |
| Cn1c(=O)n(C)c2cc(/C=N/N=C3/NC(=O)C(CC(=O)O)S3)ccc21 (configuration not stated) | inconclusive: 11.2 µM [activator, partial curve, poor fit] |
| O=C(NCC1CCCO1)c1cccc(Oc2c(Cl)cccc2[N+](=O)[O-])c1 (configuration not stated) | inactive |

| SMILES | Potency |
| --- | --- |
| O=C(Nc1ccccc1C(=O)Nc1nncs1)c1ccccc1 | inconclusive: 12.6 µM [inhibitor, partial curve, poor fit] |
| CCc1ccc(CN(Cc2cccnc2)C(=O)/C=C/c2ccc(OC)cc2)cc1 | inconclusive: 0.316 µM [activator, full curve, poor fit] |
| COc1ccccc1C1NC(=O)c2n[nH]c(-c3cccs3)c21 (configuration not stated) | inconclusive: 4.47 µM [inhibitor, partial curve, poor fit] |
| O=C(Cc1cc(=O)[nH][nH]1)N/N=C/c1ccccc1Cl | inconclusive: 6.31 µM [activator, single point] |
| CCCc1cc(C(=O)N2CCCC(Cc3ccccc3C)(C(=O)OCC)C2)no1 (configuration not stated) | inconclusive: 35.5 µM [inhibitor, single point] |
| Cc1ccc(-n2nnnc2SCc2nnc(-c3ccccc3Br)o2)c(C)c1 | inconclusive: 1.46 µM [inhibitor, full curve, poor fit] |
| COCCNC(=O)/C(C#N)=C/c1c(N2CCN(c3ccc(OC)cc3)CC2)nc2c(C)cccn2c1=O | inconclusive: 14.1 µM [inhibitor, single point] |
| COC(=O)c1cc2oc(C)cc2n1Cc1ccccc1Cl | inactive |
| O=C(CN1CCN(S(=O)(=O)c2ccccc2)CC1)Nc1ccccc1Cl | inactive |
| O=[N+]([O-])c1ccc(O)c(C2=NNC(c3ccccc3F)C2)c1 (configuration not stated) | inconclusive: 22.4 µM [inhibitor, single point] |
| Cc1ccc(NC(=S)N(CCCN2CCCC2)Cc2cccn2Cc2ccc(Cl)cc2)cc1C | inconclusive: 6.31 µM [inhibitor, full curve, poor fit] |
| COc1ccc(C(=O)n2nc(N)c3cc4ccc(C)cc4nc32)cc1OC | inactive |
| CCN(CC)c1ccc(C(=O)OCC(=O)N(C)Cc2ccccc2)cc1 | inconclusive: 5.62 µM [activator, single point] |
| COc1ccc(NC(=O)CC2C(=O)N(c3ccccc3)C(=O)N2CCc2cccs2)cc1 (configuration not stated) | inactive |
| COCCNC(=O)CCCn1c(SCC(=O)Nc2ccc(F)cc2)nc2c(sc3ccccc32)c1=O | inconclusive: 6.31 µM [inhibitor, single point] |
| CCCOC(=O)c1cccc(Nc2nc(CCC)cc(=O)[nH]2)c1 | inconclusive: 14.1 µM [inhibitor, single point] |
| Cc1ccc(S(=O)(=O)N2CCCCC2)cc1NC(=O)CSCC(=O)O | inactive |
| COc1ccc(NC(=O)C2CCC(CNS(=O)(=O)c3cccc4nsnc34)CC2)cc1OC (configuration not stated) | inactive |
| CC(=O)c1cccc(N(CC(=O)N2CCOCC2)S(C)(=O)=O)c1 | inactive |
| COc1nc(N/N=C/c2cc3c(cc2Br)OCO3)nc(N2CCOCC2)n1 | inconclusive: 0.73 µM [inhibitor, partial curve, poor fit] |
| Cc1ccc(C)c(C(=O)CN2C3=NCCCN3c3ccccc32)c1 | inconclusive: 16.4 µM [inhibitor, partial curve, poor fit] |
| O=C(NCc1ccc2c(c1)OCO2)c1ccc(CS(=O)Cc2ccc(Cl)cc2)o1 (configuration not stated) | inactive |
| COc1cc(C2C(N3C(=O)c4ccccc4C3=O)C(=O)N2c2cccc(C)c2)cc(OC)c1OC (configuration not stated) | inactive |
| CC1CCN(C(=O)COC(=O)c2c[nH]c3ccccc23)CC1 | inconclusive: 3.16 µM [activator, full curve] |

| SMILES | Potency |
| --- | --- |
| COc1ccc(NC(=O)CN(C)C(=O)c2ccc(C)s2)cc1 | inconclusive: 25.1 µM [activator, single point] |
| O=C1C2CCCN2C(c2cccnc2)N1c1ccc(Cl)c(Cl)c1 (configuration not stated) | inconclusive: 0.366 µM [inhibitor, full curve, poor fit] |
| Cc1ncoc1C(=O)Nc1ccccc1-c1ccccc1 | inactive |
| COc1cccc(/C=C2\CCCCC2=O)c1 | inactive |
| CC(C)Sc1nnc([C@@H](N)Cc2ccccc2)o1 | inactive |
| CCN1CCN(S(=O)(=O)c2ccc(Cl)c(C(=O)NCc3nc4ccccc4[nH]3)c2)CC1 | inconclusive: 35.5 µM [inhibitor, single point] |
| COC(=O)c1c(C)[nH]c(C(=O)OCC(=O)N(CC(C)C)c2c(N)n(Cc3ccccc3)c(=O)[nH]c2=O)c1C | inactive |
| Cc1cc(C)cc(OCCSc2nc3ccc(NC(=O)c4ccc5c(c4)OCO5)cc3s2)c1 | inactive |
| COc1ccccc1C(=O)NNC1=C(C(=O)C(F)(F)F)CCC1 | inconclusive: 25.9 µM [inhibitor, partial curve, poor fit] |
| CCOc1ccc(S(=O)(=O)N(CC(=O)N2CCC(C(N)=O)CC2)c2ccc(F)cc2)cc1 | inactive |
| COc1ccc(F)cc1S(=O)(=O)Nc1cc2c3c(c1)CCC(=O)N3CCC2 | inactive |
| CN1CCN(CCCCOc2ccccc2-c2ccccc2)CC1 | inconclusive: 25.1 µM [inhibitor, single point] |
| O=C(c1cc2ccccc2o1)N1CCN(c2ccccc2Cl)CC1 | inconclusive: 28.2 µM [inhibitor, single point] |
| CC(C)=CCCC(C)=CCN1C(=O)[C@@]2(CC(C)=CC[C@@H](C)O2)c2c(Br)cccc21 | inactive |
| O=C(NNC(=O)c1cccc(S(=O)(=O)N2CCc3ccccc32)c1)c1ccccc1 | inconclusive: 35.5 µM [inhibitor, single point] |
| CCc1ccccc1N(C(=O)c1ccco1)C(C(=O)NC1CCCC1)c1cccnc1 (configuration not stated) | inconclusive: 17.8 µM [inhibitor, partial curve, poor fit] |
| O=C(CCN1CCN(C(=O)c2ccccc2)CC1)c1ccc(Br)cc1 | inconclusive: 6.31 µM [inhibitor, partial curve, poor fit] |
| CCN(CC)c1ccc(C2=NNC(=O)CC2C)cc1[N+](=O)[O-] (configuration not stated) | inconclusive: 29.1 µM [inhibitor, single point] |
| CCCN(CCC)C1=N/C(=C\c2ccco2)C(=O)N1c1ccccc1 | inactive |
| CCOC(=O)CSc1cc(CS(=O)(=O)c2ccccc2)nc(-c2ccccc2)n1 | inconclusive: 15.8 µM [activator, single point] |
| COc1cccc2sc(NNC(=O)C3=COCCO3)nc12 | inactive |
| N#Cc1c[nH]n2c(NC3CCCCC3)c(-c3ccc(F)cc3)nc12 | inactive |
| Fc1cnc(N2CCN(c3ccccc3)CC2)nc1N1CCN(c2ccccc2)CC1 | inconclusive: 1.12 µM [inhibitor, partial curve, poor fit] |
| CCc1nnc(NC(=O)CCS(=O)(=O)c2ccccc2)s1 | inconclusive: 22.4 µM [inhibitor, single point] |

Part of the list above, with each value named.
O=C1C2CCCN2C(c2cccnc2)N1c1ccc(Cl)c(Cl)c1 (configuration not stated)
  Potency: inconclusive: 0.366 µM [inhibitor, full curve, poor fit]
Cc1ncoc1C(=O)Nc1ccccc1-c1ccccc1
  Potency: inactive
COc1cccc(/C=C2\CCCCC2=O)c1
  Potency: inactive
CC(C)Sc1nnc([C@@H](N)Cc2ccccc2)o1
  Potency: inactive
